Source: PMC6010127, “Sulfonamide inhibition studies of two β-carbonic anhydrases from the ascomycete fungus Sordaria macrospora, CAS1 and CAS2” (Journal of Enzyme Inhibition and Medicinal Chemistry, 2018)
pKi: −log10 of the molar value.

Experiments:
[1] = target: T1, CAS1 (Sordaria macrospora, UniProt F7VW42); experiment: stopped-flow CO2 hydration assay; type: biochemical
T1 construct: gene SMAC_03420; recombinant, obtained in-house
T1 sequence (F7VW42 1-234): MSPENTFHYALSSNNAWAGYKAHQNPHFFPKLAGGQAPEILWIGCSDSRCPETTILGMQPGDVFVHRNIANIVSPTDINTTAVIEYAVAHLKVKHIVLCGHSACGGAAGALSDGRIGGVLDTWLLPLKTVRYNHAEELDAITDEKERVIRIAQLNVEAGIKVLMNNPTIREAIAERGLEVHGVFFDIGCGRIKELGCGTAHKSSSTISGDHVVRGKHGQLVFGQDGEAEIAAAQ

[2] = target: T2, CAS2 (Sordaria macrospora, UniProt C1L336); experiment: stopped-flow CO2 hydration assay; type: biochemical; conditions: read-out: KI^a (nM) / CAS2^c / β
T2 construct: recombinant, obtained in-house
T2 sequence (C1L336 54-284): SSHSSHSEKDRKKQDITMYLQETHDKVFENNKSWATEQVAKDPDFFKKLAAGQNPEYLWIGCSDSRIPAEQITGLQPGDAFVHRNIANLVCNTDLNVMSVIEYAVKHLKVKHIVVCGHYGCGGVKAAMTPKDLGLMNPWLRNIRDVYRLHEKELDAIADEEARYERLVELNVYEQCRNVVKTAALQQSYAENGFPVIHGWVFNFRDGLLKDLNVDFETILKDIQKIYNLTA
Source text: stopped-flow CO2 hydration assay on CAS2

pKi [1]: 6.44
Ki [2]: 742 nM
Structure (SMILES): CCN[C@H]1C[C@H](C)S(=O)(=O)c2sc(S(N)(=O)=O)cc21 [DZA, dorzolamide]
